US6544753B1 (priority 1996, dated 2003)
At least one peptide structure holds a part that was inferred or is arguable (an end, a ring closure or a residue).

Target: T1, human GALR2 (Homo sapiens, UniProt O43603)
T1 sequence (O43603 1-387): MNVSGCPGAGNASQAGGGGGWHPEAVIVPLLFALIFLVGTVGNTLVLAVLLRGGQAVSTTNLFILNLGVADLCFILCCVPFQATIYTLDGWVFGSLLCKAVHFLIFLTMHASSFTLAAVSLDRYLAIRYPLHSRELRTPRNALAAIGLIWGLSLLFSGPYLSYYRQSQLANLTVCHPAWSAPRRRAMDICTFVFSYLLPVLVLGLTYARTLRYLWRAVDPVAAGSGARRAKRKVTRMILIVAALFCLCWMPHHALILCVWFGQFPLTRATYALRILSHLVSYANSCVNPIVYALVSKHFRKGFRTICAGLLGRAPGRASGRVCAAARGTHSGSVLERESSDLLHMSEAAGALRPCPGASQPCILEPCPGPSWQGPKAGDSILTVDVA
Assay: Aequorin bioluminescence assay in 293-AEQ17 cells

SMILES: CC(C)C[C@H](NC(=O)[C@H](CC(C)C)NC(=O)[C@H](Cc1ccc(O)cc1)NC(=O)CNC(=O)[C@H](C)NC(=O)[C@H](CO)NC(=O)[C@H](CC(N)=O)NC(=O)[C@H](CC(C)C)NC(=O)[C@@H](NC(=O)[C@H](Cc1c[nH]c2ccccc12)NC(=O)CN)[C@@H](C)O)C(=O)NCC(=O)N1CCC[C@H]1C(=O)N1CCC[C@H]1C(=O)N1CCC[C@H]1C(=O)NCC(=O)N[C@@H](Cc1ccccc1)C(=O)N[C@@H](CO)C(=O)N1CCC[C@H]1C(=O)N[C@@H](Cc1ccccc1)C(=O)N[C@@H](CCCNC(=N)N)C(N)=O [M35]
- agonist/antagonist character on the GALR2 receptor: partial agonists
